About 4,000 (1%) of roughly 390,000 compounds were called active. Inconclusive results, whose numbers are uncertain, are shown with a selection of clear calls. Calls follow the shape of the dose curve; as a rule, active = well fitted inhibition curve with a large enough effect; inconclusive = small, poorly fitted or top-dose-only effect, or another doubt; inactive = no such curve, though single readings can be large or run the other way. A potency beside an inconclusive call is a rough fit, not a confirmed value.
Target: DNA polymerase iota (Homo sapiens) (UniProt Q9UNA4)
Assay: qHTS for Inhibitors of Polymerase Iota
Settings: Pol iota fluorescent replication assay, 10 min; series mostly up to 115 µM; activity, negative = inhibition: at the top concentration
Procedure, shortened: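 Pol iota at 10 nM preincubated 15 min with compounds at room temperature; reaction started with fluorescent substrate, 50 nM final. Fluorescence read kinetically at 0 and 10 min; buffer-only wells as negative control.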
Potency is read from the fitted curve at half-maximal effect.

Protein sequences, listed by entry. Tags and fused reporters are not part of them. Lines headed by an entry give the natural chain unless they say otherwise; changes in a name come on top.
UniProt Q9UNA4: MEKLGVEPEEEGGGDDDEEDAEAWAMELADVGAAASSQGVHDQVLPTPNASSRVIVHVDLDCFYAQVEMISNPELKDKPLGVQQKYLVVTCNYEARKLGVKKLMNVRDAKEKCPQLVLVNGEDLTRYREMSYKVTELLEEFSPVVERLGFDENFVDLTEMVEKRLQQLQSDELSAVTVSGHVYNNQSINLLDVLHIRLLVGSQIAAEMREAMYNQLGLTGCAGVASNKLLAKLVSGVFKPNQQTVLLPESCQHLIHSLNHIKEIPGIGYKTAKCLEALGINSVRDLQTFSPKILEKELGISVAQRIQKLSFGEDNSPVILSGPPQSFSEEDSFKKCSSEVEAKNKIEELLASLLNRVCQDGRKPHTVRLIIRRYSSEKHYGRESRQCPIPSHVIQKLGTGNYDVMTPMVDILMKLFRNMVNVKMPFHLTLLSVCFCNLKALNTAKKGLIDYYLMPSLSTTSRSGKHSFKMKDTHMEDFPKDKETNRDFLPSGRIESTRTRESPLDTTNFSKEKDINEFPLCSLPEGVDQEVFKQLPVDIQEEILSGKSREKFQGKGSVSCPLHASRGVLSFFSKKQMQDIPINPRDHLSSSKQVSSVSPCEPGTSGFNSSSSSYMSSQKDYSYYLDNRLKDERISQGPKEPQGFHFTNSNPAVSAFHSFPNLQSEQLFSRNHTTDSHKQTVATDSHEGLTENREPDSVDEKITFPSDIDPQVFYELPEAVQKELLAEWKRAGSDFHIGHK

SMILES	activity, negative = inhibition	Potency
COCCCNC(=O)c1c(NC(=O)c2cc(=O)c3ccccc3o2)sc2c1CCCC2	inactive: 27.7%	
CC1=NN(c2ccc(C)c(C)c2)C(=O)/C1=C/c1ccc2c(c1)n(C)c(=O)n2C		active: 1.41 µM
Cc1ccc(C(=O)O)cc1-c1ccc(/C=C2\SC(=O)N(CC(=O)Nc3ccc4c(c3)OCO4)C2=O)o1		inconclusive: 31.6 µM [inhibitor, partial curve, poor fit]
COc1ccc(S(=O)(=O)N2CCC(C(=O)N[C@H](C(=O)NCc3ccco3)C(C)C)CC2)cc1		inconclusive: 2.82 µM [inhibitor, full curve, poor fit]
NNC(=O)c1cccc(S(=O)(=O)Nc2cc(Cl)ccc2Cl)c1		inconclusive: 11.2 µM [inhibitor, partial curve, poor fit]
Cc1ccccc1CN1C(=O)CS/C1=N/N=C/c1ccco1		inconclusive: 25.1 µM [inhibitor, full curve, poor fit]
CCc1ccc2[nH]c(=O)c(CN(CCCN3CCOCC3)C(=O)Nc3cccc(Cl)c3)cc2c1		inconclusive: 10 µM [inhibitor, partial curve, poor fit]
COc1ccc(N2CCN(CC(=O)Nc3c(C)cc(C)cc3C)CC2)cc1		inconclusive: 11.2 µM [inhibitor, partial curve, poor fit]
Cc1cc(C)c(S(=O)(=O)/N=C2\C=C(NS(=O)(=O)c3ccccc3)C(=O)c3ccccc32)c(C)c1		inconclusive: 22.4 µM [inhibitor, partial curve, poor fit]
O=C(Nc1cccc(-c2nc3ccccc3s2)c1)c1cccs1		inconclusive: 89.1 µM [inhibitor, single point]
c1ccc(CN2CCC(N3CCC(N4CCCCCC4)CC3)CC2)cc1	inactive: 124%	
Cc1ccc2c(c1)sc[n+]2Cc1ccccc1		active: 44.7 µM
CC(NC(=O)c1c2c(nc3ccccc13)C(=O)N(C1CCCCC1)C2)c1ccccc1 (configuration not stated)	inactive: 8.92%	
CCCCCCCCN1[C@@H](CC(=O)OC)c2ccc(/C=C/C(=O)OC)cc2S1(=O)=O		inconclusive: 50.1 µM [inhibitor, partial curve, poor fit]
c1nc(SSc2ncc3n[nH]nc3n2)nc2n[nH]nc12		inconclusive: 28.2 µM [inhibitor, partial curve]
O=S(=O)(c1ccc2ncn(O)c2c1)N1CCOCC1		inconclusive: 89.1 µM [inhibitor, single point]
COc1cccc(CNc2nccn(-c3cc(C)cc(C)c3)c2=O)c1	inactive: 12%	
Cc1cccc(C(=O)OCN2C(=O)c3ccccc3C2=O)c1[N+](=O)[O-]		inconclusive: 100 µM [inhibitor, single point]
O=S(=O)(c1cccc(Cl)c1)N1CCSc2ccccc21		inconclusive: 79.4 µM [inhibitor, single point]
COc1cc(O)oc1C=Nc1ccc(Oc2ccccc2)cc1		inconclusive: 39.8 µM [inhibitor, single point]
Cc1ccc(/C=C2/Sc3ccc(C(=O)NCc4ccccn4)cc3NC2=O)cc1		inconclusive: 10 µM [inhibitor, partial curve, poor fit]

Copied from the list.
Potency, COc1cc(O)oc1C=Nc1ccc(Oc2ccccc2)cc1 reads inconclusive: 39.8 µM [inhibitor, single point]
Potency, Cc1ccc2c(c1)sc[n+]2Cc1ccccc1 reads active: 44.7 µM
Potency, Cc1ccc(/C=C2/Sc3ccc(C(=O)NCc4ccccn4)cc3NC2=O)cc1 reads inconclusive: 10 µM [inhibitor, partial curve, poor fit]

(list continues)

SMILES	activity, negative = inhibition	Potency
N#CNC1=NCN(Cc2ccccc2)CN1		inconclusive: 28.2 µM [inhibitor, partial curve]
COc1ccc(N2CC(C(=O)Nc3nc4ccc(S(C)(=O)=O)cc4s3)CC2=O)cc1 (configuration not stated)		inconclusive: 25.1 µM [inhibitor, partial curve, poor fit]
O=C(O)c1cccnc1C(=O)O		inconclusive: 39.8 µM [inhibitor, single point]
CCc1ccc(Nc2nnc(SCC(=O)NC(=O)c3cccn3C)s2)cc1		inconclusive: 5.62 µM [inhibitor, full curve, poor fit]
CC(=O)n1c2ccccc2c2nc(NC(C)C)sc21		inconclusive: 20 µM [inhibitor, partial curve, poor fit]
CCN(Cc1ccccc1)C(=O)c1cc2c(OC)c(OC)c(OC)cc2[nH]1		inconclusive: 89.1 µM [inhibitor, single point]
Cc1ccccc1NC(=O)/C(C#N)=C\c1cn(CC(=O)O)c2ccccc12		inconclusive: 1.26 µM [inhibitor, full curve, poor fit]
COC(=O)C1=C(C)NC(=O)/C1=C\c1cc(C)n(-c2ccccc2C)c1C		inconclusive: 31.6 µM [inhibitor, single point]
O=C1NC(c2ccccc2)=C(c2nc3ccccc3s2)C(c2ccc(O)cc2)N1 (configuration not stated)		inconclusive: 28.2 µM [inhibitor, partial curve]
CC(=O)c1cccc(NC(=O)C2=CC(c3ccc4c(c3)OCO4)=NS(=O)(=O)N2C)c1		inconclusive: 89.1 µM [inhibitor, single point]
O=C(O)CN1C(=O)/C(=C/C=C/c2ccccc2)SC1=S		inconclusive: 15.8 µM [inhibitor, partial curve, poor fit]
Cn1c(=O)c2c(nc(NCc3ccco3)n2C/C=C/c2ccccc2)n(C)c1=O		inconclusive: 25.1 µM [inhibitor, single point]
COc1cccc(C(=O)Oc2cc(N)n(S(=O)(=O)c3ccc(C)cc3)n2)c1OC		inconclusive: 39.8 µM [inhibitor, partial curve, poor fit]
O=C(Cc1ccccc1)n1nc(-c2ccco2)nc1SCc1ccccc1		inconclusive: 10 µM [inhibitor, full curve, poor fit]
COc1ccc(Cn2c(CCC(=O)Nc3cccc(OC)c3)nc3cccnc32)cc1	inactive: 3.22%	
COc1ccc(S(=O)(=O)N(CC(=O)NC2CC2)C2CCCCC2)cc1Cl		inconclusive: 112 µM [inhibitor, partial curve, poor fit]
COc1cc(SSc2cc(OC)cc([N+](=O)[O-])c2N)c(N)c([N+](=O)[O-])c1	inactive: -4.63%	
C=CCN(c1ccccc1)S(=O)(=O)c1ccc2c(c1)NC(=O)C(C)C(=O)N2 (configuration not stated)		inconclusive: 89.1 µM [inhibitor, single point]
CCOc1ccccc1N1CCN(S(=O)(=O)CC)CC1		inconclusive: 28.2 µM [inhibitor, single point]
O=[N+]([O-])c1ccccc1S(=O)(=O)N1CCN(C2CCN(Cc3ccccc3)CC2)CC1		inconclusive: 89.1 µM [inhibitor, single point]
Oc1ccccc1N1CCN(c2ncnc3scc(-c4ccc(F)cc4)c23)CC1		inconclusive: 50.1 µM [inhibitor, partial curve, poor fit]

SMILES	activity, negative = inhibition	Potency
COc1ccc(CCn2c(C3CCCCC3)nc3c(c(=O)c4ccccc4n3C)c2=O)cc1OC		inconclusive: 89.1 µM [inhibitor, partial curve, poor fit]
COc1ccc(CCN(C)CCC(=O)Nc2cccc(C)c2)cc1OC		inconclusive: 35.5 µM [inhibitor, single point]
O=c1cc(COc2ccccc2[N+](=O)[O-])nc2sccn12		inconclusive: 22.4 µM [inhibitor, single point]
Cc1c(C(=O)OCC(=O)Nc2c(C)n(C)n(-c3ccccc3)c2=O)cccc1[N+](=O)[O-]		inconclusive: 20 µM [inhibitor, partial curve]
O=C(N/N=C/c1ccncc1)c1ccccc1[N+](=O)[O-]	inactive: 65.9%	
O=C(O)c1ccc(-n2nc(C(F)(F)F)c3c2-c2ccoc2CC3)cc1		inconclusive: 25.1 µM [inhibitor, single point]
O=c1c2c(O)cc(O)cc2oc2c(O)ccc(O[C@H]3O[C@@H](CO)[C@H](O)[C@@H](O)[C@@H]3O)c12		inconclusive: 50.1 µM [inhibitor, partial curve, poor fit]
COc1cc2[nH]cc(C(=O)NCc3cccs3)c(=O)c2cc1OC		inconclusive: 25.1 µM [inhibitor, partial curve, poor fit]
O=C(CSc1nccc(=O)[nH]1)c1ccccc1Br		inconclusive: 56.2 µM [inhibitor, full curve]
COc1ccc(N2C(S)=C(C#N)C(=O)NC2c2ccc(OC)c(OC)c2)cc1 (configuration not stated)		inconclusive: 44.7 µM [inhibitor, single point]
O=C(CSc1nnc(C2CC2)n1-c1ccccc1)NC1CCS(=O)(=O)C1 (configuration not stated)	inactive: -4.57%	
COc1cccc(-n2c(SCC(=O)Nc3cccc(Cl)c3)nc3c(oc4ccccc43)c2=O)c1	inactive: -2.81%	
COCCNC(=S)NC(=O)c1ccc(C(C)(C)C)cc1	inactive: 8.89%	
CCOC(=O)c1[nH]c(C)c(/C(O)=C2\C(=O)C(=O)N(CCN(C)C)C2c2ccco2)c1C (configuration not stated)		inconclusive: 15.8 µM [inhibitor, partial curve, poor fit]
O=c1cc(C(F)(F)F)nc(-n2[nH]c3c(c2=O)CCCC3)[nH]1		inconclusive: 31.6 µM [inhibitor, full curve, poor fit]
CN(C)c1cc(NC(=O)CN2CCCC2)c2ccccc2n1		inconclusive: 20 µM [inhibitor, partial curve, poor fit]
CCC(=O)c1ccc(OCC(=O)O)c(OC)c1	inactive: 6.47%	
O=C1NC(=S)N(C(=O)c2ccc(F)cc2)/C1=C/c1cccnc1		inconclusive: 31.6 µM [inhibitor, partial curve, poor fit]
COc1cc2sc3ccc(C#CC4(O)CCCCC4)cc3c(=O)c2cc1OC		inconclusive: 35.5 µM [inhibitor, single point]
Cc1ccc(C)c(NC(=O)Cn2nnc(C(=O)NCCc3ccccc3)c2N)c1	inactive: -19.2%	

Source: PubChem BioAssay AID588590 (National Center for Advancing Translational Sciences (NCATS), 2011)
